Measured values taken from PubChem BioAssay AID2551 (National Center for Advancing Translational Sciences (NCATS), 2010).
About 17,000 (5.5%) of roughly 310,000 compounds were called active. This list was built around the results that the source calls inconclusive (neither active nor inactive); the mix of calls is not that of the screen. Calls follow the shape of the dose curve; as a rule, active = well fitted inhibition curve with a large enough effect; inconclusive = small, poorly fitted or top-dose-only effect, or effect the other way; inactive = no such curve, though single readings can be large or run the other way. Where the call is inconclusive, the potency comes from a doubtful curve fit.

Protein sequences, listed by entry. Tags and fused reporters are not part of them. Lines headed by an entry give the natural chain unless they say otherwise; changes in a name come on top.
UniProt P51450: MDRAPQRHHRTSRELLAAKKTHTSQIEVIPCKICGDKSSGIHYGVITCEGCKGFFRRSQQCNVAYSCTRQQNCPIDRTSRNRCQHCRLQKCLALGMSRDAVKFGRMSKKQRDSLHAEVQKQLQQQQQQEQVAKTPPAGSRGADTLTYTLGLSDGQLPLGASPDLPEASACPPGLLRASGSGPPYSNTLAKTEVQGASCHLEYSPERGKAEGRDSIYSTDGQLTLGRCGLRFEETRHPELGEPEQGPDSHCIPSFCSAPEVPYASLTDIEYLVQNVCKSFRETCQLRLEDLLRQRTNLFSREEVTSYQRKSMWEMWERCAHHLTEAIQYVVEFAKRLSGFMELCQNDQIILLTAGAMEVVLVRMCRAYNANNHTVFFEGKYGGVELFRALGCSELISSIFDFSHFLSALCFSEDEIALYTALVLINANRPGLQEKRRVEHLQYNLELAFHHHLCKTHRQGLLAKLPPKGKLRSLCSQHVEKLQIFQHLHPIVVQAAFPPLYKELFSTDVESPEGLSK

Each compound was assayed against Nuclear receptor ROR-gamma (Mus musculus) (UniProt P51450) (assay: qHTS for inhibitors of ROR gamma transcriptional activity). Conditions: Drosophila S2 Gal4-RORgamma UAS-luciferase reporter, 20 h; series mostly up to 53.6 µM.
Procedure, shortened: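 Luciferase reporter read in Schneider cells carrying Gal4-RORγ (mouse) and UAS-Photinus luciferase; cells given compound 1 h before 700 uM copper sulfate induction, then incubated 20 h at ambient temperature.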
Also: nearly all actives have a fitted effect of over 60% in size.
Potency is read from the fitted curve at half-maximal effect.

SMILES | Potency
CCN(CC)c1ccc(S(=O)(=O)N2CCOCC2)cc1NS(C)(=O)=O | inactive
COc1ccc2c(CC(=O)NCc3cccs3)coc2c1 | inconclusive: 12.6 µM [activator, single point]
O=C(NCCCN1CCOCC1)c1cc2c([nH]c3ccccc32)c(-c2cccc(Br)c2)n1 | inactive
CNC(=S)/N=C(\Nc1ccc(C)cc1)c1ccccc1 | active: 2.51 µM
Cc1ccc(OCC(=O)NNC(=O)c2ccc(NC(=O)C3CC3)cc2)c(C)c1 | inconclusive: 0.1 µM [activator, full curve, poor fit]
COc1ccc(Cc2noc(CN3CCCC(OCc4ccccn4)C3)n2)cc1OC (stereo not drawn) | inactive
CC(C)(C)c1ccc(S(=O)(=O)Nc2cccc(C3OCCCO3)c2)cc1 | inconclusive: 12.6 µM [activator, partial curve]
Cc1cccc(/C=N/NC(=O)c2cc(Br)ccc2O)n1 | inconclusive: 17.8 µM [inhibitor, single point]
Clc1ccc(-n2cc(COCc3ccccc3)nn2)cc1 | inconclusive: 11.2 µM [inhibitor, single point]
CN(C)c1ccc(/C=C/c2cc[n+]([O-])cc2)cc1 | inactive
COc1cccc(C(Nc2ccccn2)c2c(NC(=O)c3ccco3)sc(C)c2C)c1 (stereo not drawn) | inconclusive: 20 µM [activator, single point]
Cc1c(Br)c(O)c(Br)c(O)c1/C=N/n1c(-c2ccccc2)n[nH]c1=S | inactive
CC(=O)Cc1nsc(NC(=O)c2ccc(-c3ccc(Cl)c(Cl)c3)o2)n1 | inconclusive: 11.2 µM [activator, partial curve, poor fit]
Brc1ccc(-c2nc(N/N=C/c3cccnc3)c3ccccc3n2)cc1 | inconclusive: 35.5 µM [inhibitor, single point]
CC1=C(C(=O)OCC(C)C)C2(O)C(=O)c3ccccc3C2(O)N1 (stereo not drawn) | inactive
CCC1=NN(C(=O)c2ccc(Br)cc2)C(O)(c2ccc(C)cc2)C1 (stereo not drawn) | active: 12.6 µM
O=C(NC(=S)Nc1ccccc1Cl)c1csnn1 | inconclusive: 35.5 µM [inhibitor, single point]
CC(=O)c1c(C)oc2ccc(NS(=O)(=O)c3ccc(C)cc3)cc12 | inconclusive: 4.47 µM [activator, full curve]
COc1ccc(OCc2cccc(C(=O)O)c2)cc1 | active: 1.78 µM
Cc1cc(NC(=O)CSc2nc(C(C)C)nc3ccccc23)no1 | inconclusive: 1.58 µM [inhibitor, full curve]
Cc1cc(/C=C2/C(=N)N3C(=NC2=O)SN=C3S(C)(=O)=O)c(C)n1-c1ccccc1F | inconclusive: 35.5 µM [inhibitor, single point]
O=Cc1cn(CC(=O)Nc2ccccc2)c2ccccc12 | inconclusive: 12.6 µM [activator, single point]
N#C/C(=C/c1ccc(N2CCCCC2)o1)C(=O)Nc1ccc2ccccc2c1 | inconclusive: 7.08 µM [activator, partial curve]
Nc1cc(N)nc(SCC(=O)N2CCc3ccccc32)n1 | inconclusive: 35.5 µM [activator, single point]
O=C1CCCC(O)=C1N=Nc1c(Cl)cc(C(F)(F)F)cc1Cl | inconclusive: 35.5 µM [inhibitor, single point]

SMILES | Potency
CCn1c(CNC(=O)COc2ccc(C(C)C)cc2)nnc1SCC(=O)Nc1cc(F)ccc1C | inconclusive: 10 µM [activator, partial curve]
COc1ccccc1NC(=O)C(=O)NCC1COc2ccccc2O1 (stereo not drawn) | inactive
COC(=O)c1ccc2c(=O)n(CC3CCCO3)c(=S)[nH]c2c1 (stereo not drawn) | active: 2.82 µM
CCOc1cc(/C=C2\SC(=NC)N(C)C2=O)c(Br)cc1OC(C)=O | inconclusive: 31.6 µM [inhibitor, single point]
Cc1ccccc1N1C(=O)c2cccc3c(N(C)CCO)ccc(c23)C1=O | active: 11.2 µM
CCN(CC)S(=O)(=O)c1ccc(Cl)c(C(=O)Nc2cc(C)nn2-c2ccccc2C(F)(F)F)c1 | inconclusive: 11.2 µM [activator, single point]
O=S(=O)(Oc1ccc(C(=S)N2CCOCC2)cc1)c1ccc(Cl)cc1 | inconclusive: 12.6 µM [activator, partial curve]
COc1ccc(-c2nnc(Sc3nc4ccccc4o3)c3ccccc23)cc1 | inactive
COC(=O)c1ccc(N2CCc3ccccc32)c([N+](=O)[O-])c1 | inactive
O=C1C=C(c2ccc(Cl)cc2)C(=O)N1Nc1ccccc1 | active: 7.08 µM
COc1ccc(OCCNc2c([N+](=O)[O-])c(=O)oc3ccccc23)cc1 | inconclusive: 12.6 µM [activator, single point]
Cn1c(=O)c2c(nc(CN3CCc4ccccc4C3)n2Cc2cccc(Cl)c2)n(C)c1=O | inconclusive: 14.1 µM [activator, single point]
CCC(=O)Nc1nc2ccc([N+](=O)[O-])cc2s1 | inconclusive: 4.47 µM [activator, partial curve]
CN(C)C(=S)Nc1ccc(Cc2ccncc2)cc1 | inactive
NC(=S)n1[nH]c(-c2ccc([N+](=O)[O-])cc2)c(N=Nc2ccccc2[N+](=O)[O-])c1=O | inconclusive: 2.24 µM [inhibitor, partial curve]
Cc1ccc(-c2cc3c(nn2)-c2ccccc2C3=O)cc1 | active: 1.12 µM
COc1ccccc1N(CC(=O)NCc1ccco1)C(=O)CCC(=O)Nc1ccccn1 | inactive
COCCN1CCN(Cc2cn[nH]c2-c2cc3ccccc3o2)CC1 | inactive
NS(=O)(=O)c1ccc(CNC(=O)NC2(c3ccccc3)CC2)cc1 | inconclusive: 0.631 µM [inhibitor, single point]
CSc1nsc(NC(=O)CCNC(=O)c2ccc([N+](=O)[O-])cc2)n1 | inconclusive: 10 µM [activator, partial curve]
CC/C(C)=N/Nc1nc2sc3c(c2c(=O)[nH]1)CC(C)(C)OC3 | inconclusive: 3.55 µM [activator, full curve]
NC(=O)c1ccccc1N/C=C/C(=O)c1ccc(F)cc1 | active: 0.562 µM
O=C(NCCNC(=O)C1CC2CCC1C2)C1CC2CCC1C2 (stereo not drawn) | inconclusive: 3.55 µM [inhibitor, single point]
CCOC(=O)C1CCCN(C(=O)/C=C/c2cccc([N+](=O)[O-])c2)C1 (stereo not drawn) | inactive
O=C(/C=C/c1ccc(F)cc1)N1CCCN(C(=O)/C=C/c2ccc(F)cc2)CC1 | inconclusive: 14.1 µM [activator, partial curve]

Of the compounds above, these have a CF3 group:
SMILES | Potency
O=C1CCCC(O)=C1N=Nc1c(Cl)cc(C(F)(F)F)cc1Cl | inconclusive: 35.5 µM [inhibitor, single point]
CCN(CC)S(=O)(=O)c1ccc(Cl)c(C(=O)Nc2cc(C)nn2-c2ccccc2C(F)(F)F)c1 | inconclusive: 11.2 µM [activator, single point]

(cont.)

SMILES | Potency
COc1ccc(OCc2ccc(C(=O)O)cc2)cc1 | inconclusive: 11.2 µM [inhibitor, single point]
Cc1nnc(NCCc2ccccc2)c2ccccc12 | inconclusive: 35.5 µM [inhibitor, single point]
S=c1[nH]nc(Cc2cccc3ccccc23)n1-c1ccccc1 | active: 3.16 µM
Cc1ccc(/C=C/C(=O)NCC2COc3ccccc3O2)o1 (stereo not drawn) | inconclusive: 35.5 µM [inhibitor, single point]
N#Cc1cc(C(=O)c2ccccc2OCC(=O)Nc2ccccc2)cn(C2CCCCC2)c1=O | inconclusive: 10 µM [activator, single point]
CCOc1cc(NC(=O)c2ccco2)c(OCC)cc1NC(=O)Cc1cccc(OC)c1 | inactive
O=C(Nc1nc(-c2cc(F)ccc2F)cs1)c1ccccn1 | active: 0.1 µM
CCOC(=O)c1sc(NC(=O)CNCc2ccccn2)c(C(=O)OCC)c1C | active: 7.94 µM
O=C(/C=C/c1cccs1)Nc1cccc(NC(=O)/C=C/c2cccs2)n1 | inconclusive: 0.112 µM [activator, full curve, poor fit]
CC(=O)c1ccc(OCc2cc(C(=O)N(C)C(C)c3nccs3)no2)cc1 (stereo not drawn) | inconclusive: 12.6 µM [activator, partial curve]
COc1ccc(CCN2C(=S)NC3CC2(C)Oc2ccc([N+](=O)[O-])cc23)cc1OC (stereo not drawn) | active: 15.8 µM
CC1=C(C(N)=O)C(c2ccc3c(c2)OCO3)n2nc(-c3cccc(C)c3)nc2N1 (stereo not drawn) | active: 5.62 µM
CCCOc1ccc(NC(=O)CC2C(=O)N(CC)C(=S)N2CCCN2CCN(Cc3ccccc3)CC2)cc1 (stereo not drawn) | inconclusive: 35.5 µM [inhibitor, single point]
COc1ccc(O)c(-c2cc(-c3ccc(F)cc3)n[nH]2)c1 | active: 12.6 µM
CN1/C(=C\C(=O)Nc2ccc(F)cc2)C(C)(C)c2ccccc21 | inconclusive: 14.1 µM [inhibitor, single point]
O=C(NNC1=Nc2cc([N+](=O)[O-])ccc2OC1)c1ccccc1Cl | active: 1 µM
CCc1cccc(CC)c1NC(=S)NCCc1c(C)[nH]c2ccccc12 | inconclusive: 5.62 µM [inhibitor, full curve, poor fit]
CCOC(=O)C1CCCN(CC(=O)c2c[nH]c3ccc(C)cc23)C1 (stereo not drawn) | inactive
O=C(NN1C(=O)c2ccccc2NC1c1ccc([N+](=O)[O-])o1)c1ccccc1 (stereo not drawn) | inconclusive: 11.2 µM [inhibitor, single point]
COC(=O)N1CCC2(CC1)CN(c1cccc(-c3ccccc3)c1)C2 | inactive
Cn1c(N)c(C(=O)COC(=O)c2cc(C3CC3)nc3ccccc23)c(=O)n(Cc2ccccc2)c1=O | inactive
O=S(=O)(c1cccc2nsnc12)N1CCN(c2ccc(F)cc2)CC1 | inconclusive: 35.5 µM [activator, single point]
COc1ccc(NC(=O)C(Cc2ccccc2)n2cccc2)cc1 (stereo not drawn) | inconclusive: 22.4 µM [activator, single point]

3 structures out of the list, arranged by length of the SMILES, rising.
SMILES | Potency
COc1ccc(OCc2ccc(C(=O)O)cc2)cc1 | inconclusive: 11.2 µM [inhibitor, single point]
CN1/C(=C\C(=O)Nc2ccc(F)cc2)C(C)(C)c2ccccc21 | inconclusive: 14.1 µM [inhibitor, single point]
O=C(/C=C/c1cccs1)Nc1cccc(NC(=O)/C=C/c2cccs2)n1 | inconclusive: 0.112 µM [activator, full curve, poor fit]
